What all share (assay): co-IP; CHO cells coexpressing Kv4.2 constructs and KChIP2; IP with HA-antibody (WB: panKChIP-antibody) and IP with panKChIP-antibody (WB: HA-antibody)
For one assay, the target named is T1, Kv4.2[wt]^HA (human) (UniProt Q9NZV8).
T1 sequence: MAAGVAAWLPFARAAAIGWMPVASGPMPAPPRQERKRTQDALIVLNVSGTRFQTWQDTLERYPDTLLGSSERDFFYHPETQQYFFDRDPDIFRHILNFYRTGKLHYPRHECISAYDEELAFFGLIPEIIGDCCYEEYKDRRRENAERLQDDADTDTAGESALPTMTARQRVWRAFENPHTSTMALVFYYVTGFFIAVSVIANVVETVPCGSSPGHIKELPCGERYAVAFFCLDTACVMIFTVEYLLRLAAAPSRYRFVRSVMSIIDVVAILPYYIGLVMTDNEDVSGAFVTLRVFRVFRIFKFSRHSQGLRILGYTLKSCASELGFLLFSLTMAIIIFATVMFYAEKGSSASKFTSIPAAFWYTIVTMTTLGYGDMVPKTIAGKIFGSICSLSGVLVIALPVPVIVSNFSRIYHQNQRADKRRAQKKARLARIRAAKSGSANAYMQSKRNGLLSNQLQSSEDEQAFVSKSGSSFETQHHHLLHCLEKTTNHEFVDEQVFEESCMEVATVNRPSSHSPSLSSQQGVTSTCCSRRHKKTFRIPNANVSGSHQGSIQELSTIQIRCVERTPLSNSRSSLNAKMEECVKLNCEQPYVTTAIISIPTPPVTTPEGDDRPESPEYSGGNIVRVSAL

Assay [1] addresses T2, Kv4.2[A14K]^HA,EGFP (human) (UniProt Q9NZV8).
T2 sequence: T1 sequence with A14K

The target in assay [2] is T3, Kv4.2[wt]^HA,EGFP (human) (UniProt Q9NZV8).
T3 sequence: T1 sequence

In a further assay the target is T4, Kv4.2[A14K]^HA (human) (UniProt Q9NZV8).
T4 sequence: T1 sequence with A14K

We go through 1 substance from PMC5792006.

Positions count from the first letter of the chain named. These are yes or no findings as the source states them, for the method shown. In cells and extracts the contact can be indirect. For some of these results: Binding can be weak; no strength is given. Sequences can lack the tags named with a protein.

With “human Kv channel interacting protein (KChIP) 2b”, the binding entry was “binds” with Kv4.2[wt]^HA (human), “no binding” in assay [1], “binds” in assay [2] and “no binding” in the assay with Kv4.2[A14K]^HA (human).
